These are yes or no findings as the source states them, for the method shown. Binding seen in cells or lysates may run through a third protein. Some binding calls cover weakened binding; strength is not graded here.

The chains behind the UniProt entries cited, without tags or fusion partners. Residues count along the entry.
UniProt P10809, residues 27-573: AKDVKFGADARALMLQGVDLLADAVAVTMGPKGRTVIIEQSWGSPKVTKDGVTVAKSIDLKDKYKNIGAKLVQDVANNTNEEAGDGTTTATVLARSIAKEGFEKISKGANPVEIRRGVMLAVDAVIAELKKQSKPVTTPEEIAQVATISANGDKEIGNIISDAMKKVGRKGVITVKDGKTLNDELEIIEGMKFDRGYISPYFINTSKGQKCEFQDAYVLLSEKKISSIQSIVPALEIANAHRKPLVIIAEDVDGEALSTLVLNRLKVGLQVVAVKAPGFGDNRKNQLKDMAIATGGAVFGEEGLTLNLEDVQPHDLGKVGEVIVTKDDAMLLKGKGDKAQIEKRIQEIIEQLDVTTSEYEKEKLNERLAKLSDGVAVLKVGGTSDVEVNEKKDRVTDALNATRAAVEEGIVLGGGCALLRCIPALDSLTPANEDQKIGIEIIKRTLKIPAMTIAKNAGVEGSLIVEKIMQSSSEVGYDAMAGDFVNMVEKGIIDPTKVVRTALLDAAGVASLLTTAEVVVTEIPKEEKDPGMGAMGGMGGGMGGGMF
UniProt Q15388: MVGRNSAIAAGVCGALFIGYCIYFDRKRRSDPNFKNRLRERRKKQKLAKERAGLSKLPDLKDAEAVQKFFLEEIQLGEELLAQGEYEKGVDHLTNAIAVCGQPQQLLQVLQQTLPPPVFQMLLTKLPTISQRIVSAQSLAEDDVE
UniProt O75489: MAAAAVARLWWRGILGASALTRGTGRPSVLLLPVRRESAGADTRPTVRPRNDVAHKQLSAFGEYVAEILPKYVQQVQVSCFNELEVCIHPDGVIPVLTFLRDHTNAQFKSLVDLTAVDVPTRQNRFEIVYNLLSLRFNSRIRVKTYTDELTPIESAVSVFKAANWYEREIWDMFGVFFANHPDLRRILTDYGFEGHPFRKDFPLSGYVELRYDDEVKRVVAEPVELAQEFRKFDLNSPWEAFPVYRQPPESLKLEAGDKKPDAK

Drawing on PMC11419255, this text covers binding for three molecules.

For assay [1], the target named is T1, ZNF598 (human (endogenous in LN299 and T24)) (UniProt Q86UK7).
T1 sequence: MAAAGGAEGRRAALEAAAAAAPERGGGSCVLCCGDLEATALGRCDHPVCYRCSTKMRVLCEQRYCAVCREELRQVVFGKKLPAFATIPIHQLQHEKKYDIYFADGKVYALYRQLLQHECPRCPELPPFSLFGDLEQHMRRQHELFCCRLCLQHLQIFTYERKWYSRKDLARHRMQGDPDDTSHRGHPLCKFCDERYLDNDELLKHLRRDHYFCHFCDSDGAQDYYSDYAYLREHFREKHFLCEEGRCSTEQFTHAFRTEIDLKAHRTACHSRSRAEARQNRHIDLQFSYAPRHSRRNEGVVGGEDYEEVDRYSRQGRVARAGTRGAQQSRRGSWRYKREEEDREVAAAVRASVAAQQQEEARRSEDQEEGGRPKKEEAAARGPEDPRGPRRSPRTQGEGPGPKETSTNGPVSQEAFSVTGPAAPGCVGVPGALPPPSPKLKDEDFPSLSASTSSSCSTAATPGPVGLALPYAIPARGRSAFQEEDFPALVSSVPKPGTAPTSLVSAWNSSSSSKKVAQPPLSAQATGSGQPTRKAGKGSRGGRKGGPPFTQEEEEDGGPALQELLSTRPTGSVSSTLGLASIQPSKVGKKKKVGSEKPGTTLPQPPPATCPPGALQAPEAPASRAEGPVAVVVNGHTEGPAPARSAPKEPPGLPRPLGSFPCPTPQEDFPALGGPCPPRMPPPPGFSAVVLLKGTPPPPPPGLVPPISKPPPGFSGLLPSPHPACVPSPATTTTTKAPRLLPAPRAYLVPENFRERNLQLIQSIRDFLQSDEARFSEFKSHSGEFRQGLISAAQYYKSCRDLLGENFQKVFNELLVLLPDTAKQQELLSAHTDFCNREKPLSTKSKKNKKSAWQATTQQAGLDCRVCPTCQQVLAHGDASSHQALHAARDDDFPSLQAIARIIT
Briefly: co-IP; IP with anti-ZNF598 from the mitochondrial fractions of T24 cells, with or without EME; NP40 IP-lysis buffer, antibody overnight at 4°C, magnetic beads, Western blot. On the technique in general: A western blot detects proteins with antibodies after separation by electrophoresis.

The target in assay [2] is HSP60 (human (endogenous in T24)) (UniProt P10809). Briefly: co-IP; IP with anti-HSP60 from the mitochondrial fractions of T24 cells, with or without EME; NP40 IP-lysis buffer, antibody overnight at 4°C, magnetic beads, Western blot.
Assay [3] has as its target TOM20 (human (endogenous in LN299 and T24)) (UniProt Q15388). As to the kind of experiment: co-IP; IP with anti-TOM20 from the mitochondrial fraction of LN299 cells, untreated or EME-treated (Fig. 3A) and EME with or without CCCP co-treatment (Fig. 5M); NP40 IP-lysis buffer, antibody overnight at 4°C, magnetic beads, Western blot.
Assay [4] deals with electron transport chain (ETC) complex-I protein C-I30 (human (endogenous in LN299)) (UniProt O75489). As to the kind of experiment: co-IP; IP with anti-C-I30 from LN299 cells, EME-treated; NP40 IP-lysis buffer, antibody overnight at 4°C, magnetic beads, Western blot.

As to TOM20 (from UniProt Q15388 1-145), the binding entry in assay [1] is recorded as “binds”.

B1: ZNF598 (protein, UniProt Q86UK7 1-904)
chain: MAAAGGAEGRRAALEAAAAAAPERGGGSCVLCCGDLEATALGRCDHPVCYRCSTKMRVLCEQRYCAVCREELRQVVFGKKLPAFATIPIHQLQHEKKYDIYFADGKVYALYRQLLQHECPRCPELPPFSLFGDLEQHMRRQHELFCCRLCLQHLQIFTYERKWYSRKDLARHRMQGDPDDTSHRGHPLCKFCDERYLDNDELLKHLRRDHYFCHFCDSDGAQDYYSDYAYLREHFREKHFLCEEGRCSTEQFTHAFRTEIDLKAHRTACHSRSRAEARQNRHIDLQFSYAPRHSRRNEGVVGGEDYEEVDRYSRQGRVARAGTRGAQQSRRGSWRYKREEEDREVAAAVRASVAAQQQEEARRSEDQEEGGRPKKEEAAARGPEDPRGPRRSPRTQGEGPGPKETSTNGPVSQEAFSVTGPAAPGCVGVPGALPPPSPKLKDEDFPSLSASTSSSCSTAATPGPVGLALPYAIPARGRSAFQEEDFPALVSSVPKPGTAPTSLVSAWNSSSSSKKVAQPPLSAQATGSGQPTRKAGKGSRGGRKGGPPFTQEEEEDGGPALQELLSTRPTGSVSSTLGLASIQPSKVGKKKKVGSEKPGTTLPQPPPATCPPGALQAPEAPASRAEGPVAVVVNGHTEGPAPARSAPKEPPGLPRPLGSFPCPTPQEDFPALGGPCPPRMPPPPGFSAVVLLKGTPPPPPPGLVPPISKPPPGFSGLLPSPHPACVPSPATTTTTKAPRLLPAPRAYLVPENFRERNLQLIQSIRDFLQSDEARFSEFKSHSGEFRQGLISAAQYYKSCRDLLGENFQKVFNELLVLLPDTAKQQELLSAHTDFCNREKPLSTKSKKNKKSAWQATTQQAGLDCRVCPTCQQVLAHGDASSHQALHAARDDDFPSLQAIARIIT
With B1, the binding entry in assay [2], in assay [3] and in assay [4] was “binds” in each case.

B2: NEMF (protein, UniProt O60524 1-1076)
chain: MKSRFSTIDLRAVLAELNASLLGMRVNNVYDVDNKTYLIRLQKPDFKATLLLESGIRIHTTEFEWPKNMMPSSFAMKCRKHLKSRRLVSAKQLGVDRIVDFQFGSDEAAYHLIIELYDRGNIVLTDYEYVILNILRFRTDEADDVKFAVRERYPLDHARAAEPLLTLERLTEIVASAPKGELLKRVLNPLLPYGPALIEHCLLENGFSGNVKVDEKLETKDIEKVLVSLQKAEDYMKTTSNFSGKGYIIQKREIKPSLEADKPVEDILTYEEFHPFLFSQHSQCPYIEFESFDKAVDEFYSKIEGQKIDLKALQQEKQALKKLDNVRKDHENRLEALQQAQEIDKLKGELIEMNLQIVDRAIQVVRSALANQIDWTEIGLIVKEAQAQGDPVASAIKELKLQTNHVTMLLRNPYLLSEEEDDDVDGDVNVEKNETEPPKGKKKKQKNKQLQKPQKNKPLLVDVDLSLSAYANAKKYYDHKRYAAKKTQKTVEAAEKAFKSAEKKTKQTLKEVQTVTSIQKARKVYWFEKFLWFISSENYLIIGGRDQQQNEIIVKRYLTPGDIYVHADLHGATSCVIKNPTGEPIPPRTLTEAGTMALCYSAAWDARVITSAWWVYHHQVSKTAPTGEYLTTGSFMIRGKKNFLPPSYLMMGFSFLFKVDESCVWRHQGERKVRVQDEDMETLASCTSELISEEMEQLDGGDTSSDEDKEEHETPVEVELMTQVDQEDITLQSGRDELNEELIQEESSEDEGEYEEVRKDQDSVGEMKDEGEETLNYPDTTIDLSHLQPQRSIQKLASKEESSNSSDSKSQSRRHLSAKERREMKKKKLPSDSGDLEALEGKDKEKESTVHIETHQNTSKNVAAVQPMKRGQKSKMKKMKEKYKDQDEEDRELIMKLLGSAGSNKEEKGKKGKKGKTKDEPVKKQPQKPRGGQRVSDNIKKETPFLEVITHELQDFAVDDPHDDKEEQDLDQQGNEENLFDSLTGQPHPEDVLLFAIPICAPYTTMTNYKYKVKLTPGVQKKGKAAKTALNSFMHSKEATAREKDLFRSVKDTDLSRNIPGKVKVSAPNLLNVKRK
With B2, the binding entry in assay [2], in assay [3] and in assay [1] was “binds” throughout.
